Laboratory results: PubChem BioAssay AID1347076 (National Center for Advancing Translational Sciences (NCATS), 2019)
Screen size: about 400,000 compounds; about 13,000 (3.2%) were called active. This list was built around the results that the source calls inconclusive (neither active nor inactive); the mix of calls is not that of the screen. The call rests on the fitted dose curve; in most records, active means well fitted cell-killing curve with a large enough effect; inconclusive means small, poorly fitted or top-dose-only effect, or effect the other way; inactive means flat fitted curve, though single readings scatter. Potencies beside an inconclusive call are fits to weak or partial responses and may not hold up.

Assay: qHTS assay for MDR1-selective chemotherapeutics: Primary screen using the drug-selected MDR subline cells KB-V1; further: nearly all actives have a fitted effect of over 60% in size
Conditions: KB-V1 MDR cells viability, CellTiter-Glo, 72 h; activity change, negative = cytotoxicity: at 46.1 µM (top of the series)
How it was run: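 Drug-selected KB-V1 cells, grown in DMEM lacking phenol red with 10% FBS, receive compound titrations; after three days at 37 degrees C, surviving cell ATP is quantified by CellTiter-Glo luminescence and responses normalized and curve-fitted.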
On the % scale 0 is the no-effect control and ±100 the full control effect; potency means the concentration at half of the fitted maximal effect.

Question: Which Potency does the source give for `CCN(CC)c1ccc(NC(=O)CN2CCN(CC(=O)Nc3ccccc3F)CC2)cc1` here?
Answer: inconclusive: 3.66 µM [cytotoxic, partial curve]

Question: With `CC(=O)CSc1ncnc2sc3c(c12)CCC3` as the molecule, how does the Potency read?
Answer: inconclusive: 20.6 µM [cytotoxic, partial curve, poor fit]

Question: With `O=S(=O)(c1ccc(SCc2ccc(Br)cc2)nc1)N1CCOCC1` as the molecule, how does the Potency read?
Answer: active: 13 µM

Question: Which “activity change, negative = cytotoxicity” value does the source give for `CCOC(=O)c1cc(CC)sc1NC(=O)COC(=O)c1cc[n+]([O-])cc1` here?
Answer: inactive: 14.6%

Question: With `Cc1nc(NC(=O)COC(=O)CCC(=O)c2cccs2)c(Cl)cc1Cl` as the molecule, how does the Potency read?
Answer: inconclusive: 29.1 µM [rising, partial curve, poor fit]

Question: Which “activity change, negative = cytotoxicity” value does the source give for `CCOC(=O)c1c(C)[nH]c(C(=O)CN(C)CC(=O)Nc2ccccc2Cl)c1C` here?
Answer: inactive: -14.7%

Question: For `Cc1[nH]c2ccccc2c1C(=O)C(=O)N1CCCc2ccccc21`, which Potency is on record?
Answer: inconclusive: 14.6 µM [cytotoxic, single point]

Question: With `CCC(=O)Nc1ccccc1-c1nnn(CC(=O)N2c3ccccc3CC2C)n1` (stereo not given) as the molecule, how does the Potency read?
Answer: inconclusive: 9.2 µM [cytotoxic, partial curve]

Question: With `CC1CCCCN1CC(O)COCCC12CC3CC(CC(C3)C1)C2` (stereo not given) as the molecule, how does the Potency read?
Answer: inconclusive: 23.1 µM [cytotoxic, single point]

Question: For `c1cc(Nc2cccc3nccnc23)c2nccnc2c1`, which Potency is on record?
Answer: inconclusive: 20.6 µM [cytotoxic, single point]

Question: Which “activity change, negative = cytotoxicity” value does the source give for `COC(=O)[C@]1(Sc2ccc(C)cc2)CC(=O)N[C@@H]1c1ccccc1` here?
Answer: inactive: -9.48%

Question: For `Cc1cc(C)c2c(N)c(S(=O)(=O)c3ccccc3)sc2n1`, which Potency is on record?
Answer: inconclusive: 20.6 µM [cytotoxic, single point]

Question: For `O=C(c1ccc(Cl)c(S(=O)(=O)N2CCOCC2)c1)N1CCN(c2ccccc2F)CC1`, which Potency is on record?
Answer: inconclusive: 10.3 µM [cytotoxic, partial curve]

Question: Which “activity change, negative = cytotoxicity” value does the source give for `O=C(CCSCc1ccc(Cl)cc1)NCc1cccnc1` here?
Answer: inactive: -14.6%

Question: With `CC(C(=O)NC1CCCCC1)N(Cc1ccc(F)cc1)C(=O)c1snc(C(N)=O)c1N` (stereo not given) as the molecule, how does the Potency read?
Answer: inconclusive: 4.11 µM [cytotoxic, full curve]

Question: Which Potency does the source give for `O=C(CSCc1nc2ccccc2[nH]1)Nc1ccc(Oc2ccccc2)cc1` here?
Answer: inconclusive: 16.4 µM [cytotoxic, single point]

Question: Which Potency does the source give for `c1ccc(-c2cc(CSc3nc4ccccc4[nH]3)on2)cc1` here?
Answer: inconclusive: 16.4 µM [cytotoxic, partial curve, poor fit]

Question: With `O=[N+]([O-])c1ccc(N2CCc3ccccc3C2)nc1` as the molecule, how does the Potency read?
Answer: inconclusive: 23.1 µM [cytotoxic, single point]

Question: Which “activity change, negative = cytotoxicity” value does the source give for `COc1ccc(C2NC(=O)NC(C)=C2C(=O)OCc2ccc3c(c2)OCO3)cc1OC` (stereo not given) here?
Answer: inactive: 8.88%

Question: Which Potency does the source give for `CCCCCCN1C[C@@H](n2cc(C3CC3)nn2)[C@H](O)C[C@@H]1c1ccc(Cl)cc1` here?
Answer: inconclusive: 23.1 µM [cytotoxic, single point]

Question: Which “activity change, negative = cytotoxicity” value does the source give for `Cc1cccc(CNC(=O)CN2C(=O)C3CCCCN3c3ccc(C(=O)N4CCCC4)cc32)c1` (stereo not given) here?
Answer: inactive: -4.61%

Question: With `Cc1ccc(/C=C/C(=O)O)cc1S(=O)(=O)N(C)CCO` as the molecule, how does the Potency read?
Answer: inconclusive: 0.461 µM [rising, full curve, poor fit]

Question: For `CCC(=O)N1CCc2cc(CNC(=O)Nc3cc(C)ccc3C)ccc21`, which “activity change, negative = cytotoxicity” value is on record?
Answer: inactive: -3.69%

Question: Which Potency does the source give for `COC(=O)c1cccc(C#CC(NP(=O)(c2ccccc2)c2ccccc2)c2ccccc2)c1` (stereo not given) here?
Answer: inconclusive: 20.6 µM [cytotoxic, single point]

Question: Which “activity change, negative = cytotoxicity” value does the source give for `Nn1c(Cc2cccc3ccccc23)nnc1SCc1ccc(Cl)c(Cl)c1` here?
Answer: inactive: -11%

Question: Which Potency does the source give for `Cc1ccccc1OCCC(=O)OCC(=O)c1c(N)n(CC(C)C)c(=O)n(C)c1=O` here?
Answer: inconclusive: 10.3 µM [cytotoxic, partial curve, poor fit]

Question: With `CC(=O)c1ccc(NC(=O)c2ccccc2-c2ccccc2C(=O)O)cc1` as the molecule, how does the Potency read?
Answer: inconclusive: 9.2 µM [rising, partial curve, poor fit]

Question: Which Potency does the source give for `O=C(Nc1ccc([N+](=O)[O-])cc1)Nc1nc(-c2ccc(Cl)s2)cs1` here?
Answer: inconclusive: 4.11 µM [cytotoxic, full curve, poor fit]

Question: For `COc1ccc(CCNS(=O)(=O)c2ccc(F)c(C(=O)Nc3ccc(Cl)cc3)c2)cc1OC`, which Potency is on record?
Answer: inconclusive: 8.2 µM [cytotoxic, partial curve, poor fit]

Question: With `Cc1nc2ccc(-n3ccc(=O)cc3)cc2s1` as the molecule, how does the Potency read?
Answer: inconclusive: 0.13 µM [cytotoxic, full curve]

Question: With `CCOc1cc(C=O)ccc1OCC(N)=O` as the molecule, how does the Potency read?
Answer: inconclusive: 9.2 µM [rising, partial curve, poor fit]

Question: Which “activity change, negative = cytotoxicity” value does the source give for `OC(c1cc(Cl)cc(Cl)c1)c1ncc(-c2cccc(F)c2)[nH]1` (stereo not given) here?
Answer: inactive: -7.49%

Question: Which Potency does the source give for `OC(COc1ccc2c(c1)CCC2)Cn1cnc2ccccc21` (stereo not given) here?
Answer: inconclusive: 29.1 µM [cytotoxic, single point]

Question: With `C/C=C/c1ccc(OCCCCN2CC(C)CC(C)C2)c(OC)c1` (stereo not given) as the molecule, how does the Potency read?
Answer: inconclusive: 9.2 µM [cytotoxic, partial curve]

Question: Which Potency does the source give for `N#CCCN(C(=O)COC(=O)c1cccc(S(=O)(=O)N2CCCCCC2)c1)c1ccc(F)cc1` here?
Answer: active: 13 µM

Question: For `COc1ccc(CCNC(=O)Cn2c(=O)cnc3ccccc32)cc1`, which “activity change, negative = cytotoxicity” value is on record?
Answer: inactive: -10.7%

Question: Which Potency does the source give for `COc1ccc(C(=O)Nc2ccc(Cl)c(S(=O)(=O)N3CCOCC3)c2)cc1` here?
Answer: active: 7.31 µM

Question: Which Potency does the source give for `CCOC(=O)C1=CCN(S(=O)(=O)c2ccccc2Br)C1c1ccccc1` (stereo not given) here?
Answer: inconclusive: 29.1 µM [cytotoxic, single point]

Question: For `CCn1c(C(=O)NCc2ccc(OC)cc2)cc2sc(Cl)cc21`, which “activity change, negative = cytotoxicity” value is on record?
Answer: inactive: 0.444%

Question: For `CCCCn1nc(C(=O)Nc2c(C)n(C)n(-c3ccccc3)c2=O)c2ccccc2c1=O`, which Potency is on record?
Answer: inconclusive: 29.1 µM [cytotoxic, single point]

Question: Which “activity change, negative = cytotoxicity” value does the source give for `CCCc1nc2cc3c(cc2[nH]1)n(C)c(=O)n3C` here?
Answer: inactive: 6.32%

Question: With `O=S(=O)(c1ccccc1F)N1CCN(Cc2cc3c(cc2Br)OCCO3)CC1` as the molecule, how does the Potency read?
Answer: active: 20.6 µM

Question: With `Cc1onc(-c2ccccc2)c1NC(=O)N(CCC#N)Cc1ccccc1` as the molecule, how does the “activity change, negative = cytotoxicity” value read?
Answer: inactive: -26.5%

Question: Which Potency does the source give for `COc1ccc(OCCNC(=O)c2cccc(Oc3ccc(C(F)(F)F)cc3[N+](=O)[O-])c2)cc1` here?
Answer: active: 2.91 µM

Question: Which Potency does the source give for `CCN(CC(=O)Nc1cccc(OC)c1)CC(=O)Nc1cccc2ccccc12` here?
Answer: inconclusive: 20.6 µM [cytotoxic, single point]

Question: With `CC(=O)N1N=C2c3ccccc3CCC2C1c1ccc(F)cc1` (stereo not given) as the molecule, how does the Potency read?
Answer: inconclusive: 29.1 µM [cytotoxic, single point]

Question: For `Nc1cc(C(F)(F)F)cc([N+](=O)[O-])c1N`, which Potency is on record?
Answer: inconclusive: 20.6 µM [rising, single point]

Question: With `COc1cc(Br)c(CN2C(=O)NC3(CCCCCC3)C2=O)cc1OC` as the molecule, how does the Potency read?
Answer: active: 6.51 µM

Question: With `Cc1ccc(Nc2ncnc3onc(C)c23)cc1Cl` as the molecule, how does the “activity change, negative = cytotoxicity” value read?
Answer: inactive: 11.6%

Question: For `CC(Oc1ccc(Cl)cc1Cl)C(=O)Nc1ccncc1` (stereo not given), which Potency is on record?
Answer: active: 9.2 µM

Question: For `CC(=O)c1cccc(-c2ccnc3c2CC(C(=O)Nc2ccc(Cl)cc2)O3)c1` (stereo not given), which Potency is on record?
Answer: inconclusive: 9.2 µM [cytotoxic, partial curve]

Question: With `O=C(Nc1cccc(NC(=O)C2CCCO2)c1)C1CCCO1` (stereo not given) as the molecule, how does the activity change, negative = cytotoxicity read?
Answer: inconclusive: -41.3%

Question: Which Potency does the source give for `COc1ccc(/C=N\NC(=O)c2nn(C)cc2Cl)cc1CN1CCOCC1` here?
Answer: inconclusive: 18.4 µM [rising, partial curve]

Question: For `Cc1cc(NC(=O)COc2ccc(Cl)cc2Cl)n(-c2ccccc2)n1`, which Potency is on record?
Answer: inconclusive: 9.2 µM [cytotoxic, partial curve, poor fit]

Question: For `COc1cc(C(=O)Nc2cc(Cl)ccc2C)c(-n2cnnn2)cc1OC`, which Potency is on record?
Answer: inconclusive: 25.9 µM [cytotoxic, single point]

Question: For `CCOC(=O)c1cc(C#N)c(=S)[nH]c1C`, which Potency is on record?
Answer: inconclusive: 29.1 µM [rising, single point]

Question: For `Nc1nc2ccccc2cc1C(=O)NCc1ccc(-c2ccccc2)cc1`, which Potency is on record?
Answer: active: 2.59 µM

Question: With `COc1cccc(/C=N/NC(=O)c2cc(-c3cccn3C)n[nH]2)c1` as the molecule, how does the Potency read?
Answer: inconclusive: 29.1 µM [cytotoxic, single point]

Question: With `COc1cc(NC(=O)NCCN2CCN(c3ccc(Cl)cc3)CC2)ccc1C` as the molecule, how does the Potency read?
Answer: inconclusive: 9.2 µM [cytotoxic, partial curve, poor fit]

Question: With `C[C@H](CO)N1C[C@H](C)[C@@H](CN(C)S(=O)(=O)c2ccc(F)cc2)Oc2c(NC(=O)c3ccncc3)cccc2C1=O` as the molecule, how does the Potency read?
Answer: inconclusive: 1.16 µM [rising, full curve]

Question: With `CCc1nnc(NC(=O)CSc2nnc(C)n2Cc2ccccc2)s1` as the molecule, how does the Potency read?
Answer: inconclusive: 11.6 µM [cytotoxic, partial curve, poor fit]

Question: Which “activity change, negative = cytotoxicity” value does the source give for `O=C(/C(Br)=C/Nc1cc(Cl)ccc1Cl)C(F)(F)F` here?
Answer: inactive: 0.843%

Question: Which “activity change, negative = cytotoxicity” value does the source give for `COc1ccc(OC)c2[nH]c(=O)c(CCNC(C)=O)cc12` here?
Answer: inactive: -7.18%

Question: Which Potency does the source give for `COc1cccc2[nH]c(C(=O)NN)c(N)c12` here?
Answer: inconclusive: 29.1 µM [cytotoxic, single point]

Question: Which “activity change, negative = cytotoxicity” value does the source give for `CN(Cc1cc2ccccc2[nH]c1=O)S(C)(=O)=O` here?
Answer: inactive: 9.04%

Question: Which Potency does the source give for `Cc1cc(C)cc(C(=O)Nc2ccc(NC(=O)c3cccs3)cc2)c1` here?
Answer: inconclusive: 16.4 µM [cytotoxic, partial curve]

Question: Which Potency does the source give for `Cc1cc(C(=O)COC(=O)CC2Sc3ccccc3NC2=O)c(C)n1-c1cccc(C(F)(F)F)c1` (stereo not given) here?
Answer: inconclusive: 20.6 µM [cytotoxic, single point]

Question: For `COc1cc2[nH]c(=S)n(Cc3ccccc3)c(=O)c2cc1OC`, which Potency is on record?
Answer: inconclusive: 11.6 µM [cytotoxic, partial curve, poor fit]

Question: With `CCC(=O)c1ccc(OCC(=O)N(CC)CC2COc3ccccc3O2)cc1` (stereo not given) as the molecule, how does the Potency read?
Answer: inconclusive: 20.6 µM [cytotoxic, single point]

Question: With `CC1CCN(C(=O)c2ccc(Br)c(S(=O)(=O)N3CCOCC3)c2)CC1` as the molecule, how does the “activity change, negative = cytotoxicity” value read?
Answer: inactive: -25.1%
